# Source: paper PMC10891094, “Substrate binding and catalytic mechanism of the Se-glycosyltransferase SenB in the biosynthesis of selenoneine” (Nature Communications, 2024)
# Results are given in words; binding and its absence hold for the method and conditions named.
# B1: Se-glycosyltransferase SenB from Variovorax paradoxus (enzyme, UniProt A0ACH4EUC8 1-331)
# chain: MSNPSLVIVSPALPGANNGNWRTAQRWKALLSPVCSARVVQQWPDADASADTVMLALHARRSAESIAHWAHAHPGRGLGVVLTGTDLYQDIGSDPQAQRSLQLAQRLVVLQALGAEALPPECRAKARVVYQSTSARAELPKSARQLRAVMVGHLRQVKSPQTLFDAARLLCGREDIRIDHIGDAGDAGLGELARALASDCPGYRWLGALPHAQTRQRIQRAHVLVHTSALEGGAHVIMEAVRSGTPVLASRVPGNVGMLGNDYAGYFPHGDAAALAALLEACRAGQGSKDRAAGLLDSLRTQCALRAPLFDPRAEQAALFQLLNELQPPPP
# Target: Se-glycosyltransferase SenB from Variovorax paradoxus (Variovorax paradoxus)
# Test: SEC; HiLoad 16/600 Superdex 75; 20 mM Tris-HCl pH 7.5, 150 mM NaCl, 1 mM DTT; both purified
binder,measurement,value
B1,binding,no binding
